Results deposited as PubChem BioAssay AID504793 (Drosophila RNAi Screening Center, 2011).
Test: 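Whole-genome screen for parts of the DNA damage checkpoint at G2/M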 (primary screen). System: Drosophila S2R+ cells. Reagents: long dsRNA against Drosophila genes, about 0.25 µg dsRNA per well. Duration: 4 days of dsRNA, then 4 hours of drug before read-out. Treatment: doxorubicin 0.5 µM for 4 hours to cause double-strand breaks, in cells also given a low, harmless dose of dsRNA against nbs to sensitise the assay. Measured: 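Mitotic index as the number of phospho-histone H3-positive cells in each well following doxorubicin, given as raw counts without normalisation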. Direction: mitotic cells: higher = more cells in mitosis, weaker G2 arrest. Active means: 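a call needs confirmation in secondary tests, with other dsRNAs and a check of mitotic timing without damage, not just a high primary count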. Calls: active = confirmed in follow-up tests; inactive = not confirmed.
The deposit covers about 23,000 reagents; this is an unselected part of those that have a named target and a result. Of all reagents, 62 (0.27%) were called active. 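Calls come from follow-up tests whose scores are not deposited, so confirmed genes may have low counts here; counts are not normalised per plate.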 Raw values vary from plate to plate and are shown uncorrected. Unmarked entries are inactive. A plus sign joins genes that one reagent is predicted to hit.

mitotic cells, replicate 1 | mitotic cells, replicate 2 | Gene | DRSC id
16 | 8 | CG14218 | DRSC19575
4 | – | CG14218 | DRSC25424
9 | – | hop | DRSC20340
7 | – | hop | DRSC23334
11 | – | hop | DRSC26551
6 | – | Gs1 | DRSC00753
5 | – | Gs1 | DRSC28916
1 | – | CG12868 | DRSC06207
4 | – | CG12868 | DRSC26377
1 | – | Prim1 | DRSC11137
9 | – | CG14229 | DRSC19585
10 | – | CG14229 | DRSC23149
10 | – | olf186-M | DRSC07657
6 | – | ems | DRSC25044
4 | – | CG9759 | DRSC16558
10 | – | CG9759 | DRSC26341
10 | – | CG7239 | DRSC23113
9 | – | CG6178 | DRSC15984
10 | – | Cdk7 | DRSC18451
8 | – | Cdk7 | DRSC23327
5 | – | CG12279 | DRSC14495
7 | – | Cpr64Ad | DRSC08284
6 | – | Cpr64Ad | DRSC25264
5 | – | CG2852 | DRSC04321
6 | – | CG2852 | DRSC27956
7 | – | CG32119 | DRSC09248
10 | – | CG32119 | DRSC21462
3 | – | CG32119 | DRSC29122
2 | – | CG16957 | DRSC02545
8 | – | CG17717 | DRSC18130
10 | – | CG5084 | DRSC06913
2 | – | CG5084 | DRSC27650
5 | – | Ssdp | DRSC16211
10 | – | Ssdp | DRSC27526
5 | – | 2mit | DRSC14194
1 | – | 2mit | DRSC15224
14 | – | MstProx | DRSC12458
7 | – | MstProx | DRSC12601
5 | – | CG31693 | DRSC03674
3 | – | kra | DRSC12320
10 | – | CG18787 + CG18789 | DRSC24994
5 | – | Ge-1 | DRSC02938
8 | – | Ge-1 | DRSC28827
4 | – | CG14851 | DRSC14975
7 | – | CG14851 | DRSC21500
8 | – | CG14851 | DRSC27841
6 | – | CG3581 | DRSC15499
4 | – | Mal-B1 | DRSC02416
4 | – | Mal-B1 | DRSC25542
2 | – | Jhbp4 | DRSC14222
7 | – | HipHop | DRSC10734
14 | – | fzo | DRSC16954
10 | – | fln | DRSC11346
6 | – | fln | DRSC28670
8 | – | EMC1 | DRSC15455
5 | – | CG13532 | DRSC04174
9 | – | CG14817 | DRSC18547
10 | – | CG7675 | DRSC16280
5 | – | CG7675 | DRSC26897
6 | – | OstDelta | DRSC06980
7 | – | OstDelta | DRSC27205
10 | – | Usp1 | DRSC14155
3 | – | CG6610 | DRSC10674
10 | – | CR33319 | DRSC01826
3 | – | CG30105 | DRSC05668
4 | – | CG30105 | DRSC29034
4 | – | CG14826 | DRSC10197
9 | – | dre4 | DRSC08714
6 | – | Nlg1 | DRSC12485
5 | – | Nlg1 | DRSC12532
8 | – | Nlg1 | DRSC12533
2 | – | Nlg1 | DRSC12539
5 | – | imd | DRSC05928
1 | – | imd | DRSC26032
9 | – | CG34325 | DRSC19802
5 | – | CG34325 | DRSC20200

Not a retest: entries from further up.
mitotic cells, replicate 1 | mitotic cells, replicate 2 | Gene | DRSC id
3 | – | CG30105 | DRSC05668
4 | – | CG30105 | DRSC29034
4 | – | CG14826 | DRSC10197
9 | – | dre4 | DRSC08714
6 | – | Nlg1 | DRSC12485
5 | – | Nlg1 | DRSC12532
8 | – | Nlg1 | DRSC12533
2 | – | Nlg1 | DRSC12539
5 | – | imd | DRSC05928
1 | – | imd | DRSC26032
9 | – | CG34325 | DRSC19802
